Data from PubChem BioAssay AID540275 (National Center for Advancing Translational Sciences (NCATS), 2011).
The campaign covered roughly 320,000 compounds. About 620 (0.19%) were called active. Inconclusive results, whose numbers are uncertain, are shown with a selection of clear calls. No stated cut-off is given here; in the data, active means activation above about 80%; inconclusive means between about 30% and that limit; inactive means weaker than that.

Amino acid sequences for entries named in this document (tags omitted).
UniProt Q8NER1, whole entry, looked up: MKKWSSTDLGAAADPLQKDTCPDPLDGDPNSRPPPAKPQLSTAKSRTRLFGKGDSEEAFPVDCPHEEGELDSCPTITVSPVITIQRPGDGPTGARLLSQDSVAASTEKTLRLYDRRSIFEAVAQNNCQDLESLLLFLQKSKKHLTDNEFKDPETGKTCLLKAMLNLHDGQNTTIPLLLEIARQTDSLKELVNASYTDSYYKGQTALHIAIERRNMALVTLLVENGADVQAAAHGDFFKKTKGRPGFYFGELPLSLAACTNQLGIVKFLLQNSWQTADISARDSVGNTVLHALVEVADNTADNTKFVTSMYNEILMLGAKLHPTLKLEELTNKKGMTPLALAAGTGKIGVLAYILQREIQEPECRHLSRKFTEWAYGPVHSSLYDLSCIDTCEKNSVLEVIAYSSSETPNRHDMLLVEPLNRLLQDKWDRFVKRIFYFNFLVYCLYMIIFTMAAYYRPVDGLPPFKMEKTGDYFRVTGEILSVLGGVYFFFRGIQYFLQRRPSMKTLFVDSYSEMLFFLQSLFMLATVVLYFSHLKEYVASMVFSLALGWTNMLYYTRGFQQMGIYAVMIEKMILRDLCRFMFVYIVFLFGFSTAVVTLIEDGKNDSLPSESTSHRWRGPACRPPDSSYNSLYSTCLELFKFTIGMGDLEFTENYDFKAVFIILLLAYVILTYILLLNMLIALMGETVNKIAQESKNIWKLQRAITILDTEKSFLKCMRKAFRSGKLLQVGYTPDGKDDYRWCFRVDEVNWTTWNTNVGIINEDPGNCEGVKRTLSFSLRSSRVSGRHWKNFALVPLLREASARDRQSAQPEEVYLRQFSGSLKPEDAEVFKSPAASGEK

Each compound was assayed against Transient receptor potential cation channel subfamily V member 1 (Homo sapiens) (UniProt Q8NER1) (assay: HTS Assay for Compounds that Act as Agonists of the Vanilloid Receptor 1). Conditions: TRPV1-expressing cells, Fluo-8 calcium influx, agonist mode; at 8.33 µM, stronger effect = higher value.
In short: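 TRPV1-expressing cells were cultured overnight at 35.5C and loaded with Fluo-8 calcium dye for 40 to 90 min at room temperature. After a 10 s baseline, compound was added and calcium influx was read kinetically for 3 min (ex 480/em 520 nm).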
Further: 0% is about no effect.

Structure (SMILES) | activation
O=C(CN1CCC(NC(=O)Nc2ccc(F)cc2)CC1)Nc1ccccc1[N+](=O)[O-] | inconclusive: 61.4%
O=C(NC1CC1)C1CC(=O)N(c2cccc(Cl)c2Cl)C1 (stereo not given) | inconclusive: 34.2%
O=C(Nc1ccccc1C(=O)NCCc1ccccc1)c1ccco1 | inconclusive: 55.3%
Oc1cccc2c(NC(=S)Nc3ccc(SC(F)F)cc3)cccc12 | inactive: 2.09%
CCc1ccc(N2CN(Cc3ccco3)CNC2=S)cc1 | inactive: -0.446%
NS(=O)(=O)c1ccc(NC(=S)NCc2ccc3c(c2)OCO3)cc1 | inconclusive: 32.9%
O=C(NC1CC1)c1ccc(CSCc2ccccc2Cl)o1 | inconclusive: 31.5%
Cc1noc(C)c1CSc1nc2ccccc2n1CCc1ccccc1 | inconclusive: 55.3%
COc1ccc(NC(=O)C(CC(C)C)NC(=O)C2CCCCC2)c(OC)c1 (stereo not given) | inconclusive: 38.4%
CC(=O)c1nccs1 | inactive: 1.45%
CN(C)c1ccc(/C=N/Nc2nc3ccccc3o2)cc1 | inactive: -5.61%
CC(C)C[C@@H](NC(=O)C1CCC(CNC(=O)[C@@H]2CCCN2C(=O)OC(C)(C)C)CC1)C(=O)O (stereo not given in full) | inactive: -1.29%
CC(Cc1cccs1)NC(=O)Nc1ccccc1 (stereo not given) | inconclusive: 48.5%
COc1cccc(N2CCN(C(=S)NCCc3ccccc3)CC2)c1 | inconclusive: 64.7%
O=C(Nc1ccccc1)c1cc(-c2ccccc2Cl)no1 | active: 84.9%
COc1cc(CNC(=O)CCCC(=O)c2ccccc2)cc(OC)c1OC | inactive: 0.412%
CC1=CC(=C(C#N)c2nc3ccccc3s2)C=C(C)N1Cc1ccco1 | inconclusive: 49%
COc1ccccc1C(=O)Nc1ccc(C(=O)c2ccccc2)cc1 | inconclusive: 40.1%
Cc1cnc(C(=O)Nc2ccc(F)c(F)c2)cn1 | inconclusive: 56.5%
COc1ccc(C)cc1NC(=O)CCN1CCCC1 | inactive: 1.54%
CC(Oc1cccc(Cl)c1)C(=O)NCCCCc1ccccc1 (stereo not given) | inconclusive: 33.8%
CC(=O)NC12CC3CC(C1)CC(C(=O)NCc1ccc(C)cc1)(C3)C2 | inconclusive: 35.4%
CCOCCCn1c(=S)[nH]c2cc(C(=O)NCc3ccc(F)cc3)ccc2c1=O | inconclusive: 34%

Structure (SMILES) | activation
CCCSc1ccc(C(=O)Nc2ccc(F)cc2F)cn1 | inconclusive: 73.3%
CC1CN(C(=O)c2ccccc2OCc2ccccc2Cl)CC(C)O1 (stereo not given) | inactive: 24.2%
O=C(NCC1CCCO1)c1ccc2nc(N3CCCCC3)sc2c1 (stereo not given) | inconclusive: 48.1%
COc1ccc([C@H]2CC(=O)C=C(c3cccc(Cl)c3)C2)cc1 | inconclusive: 51.2%
CN(C1CCCCC1)S(=O)(=O)c1ccc(C(=O)Nc2sc3c(c2C(N)=O)CC(C)(C)NC3(C)C)cc1 | inactive: -0.852%
CCSc1nnc(NC(=O)c2ccc3c(c2)OCO3)s1 | inconclusive: 51.9%
CC(C)NC(=O)c1ccc(CSCc2ccccc2Cl)o1 | inconclusive: 37.9%
CC(=O)c1cccc(OCc2cc(C(=O)N3CC4C[C@@H]5CC3C[C@H](C4)C5)no2)c1 | inconclusive: 57.9%
O=[N+]([O-])c1ccccc1/C=C/C=N/n1c(-c2ccccc2F)n[nH]c1=S | inactive: 23.4%
COc1ccc(C2C3=C(CCCC3=O)NC3=C2C(=O)c2ccccc23)cc1 (stereo not given) | inconclusive: 38.6%
O=C(Cc1ccccc1)Nc1cccc(S(=O)(=O)N2CCCCCC2)c1 | inconclusive: 54.8%
Cc1ccc(CNC(=O)CSCc2ccccc2F)cc1 | inconclusive: 41.7%
CCCCN(CC(=O)NC1CCCC1)C(=O)C(=O)Nc1ccc2c(c1)OCCO2 | inactive: -0.0512%
Clc1ccc2nc(C3CCN(Cc4nnnn4C4CCCCC4)CC3)[nH]c2c1 | inactive: -1.15%
O=C(NCCN1CCOCC1)C(=O)NCC1OCCN1S(=O)(=O)c1ccccc1 (stereo not given) | inconclusive: 34.7%
O=C(Cc1ccccc1)Nc1ccc2oc(-c3cccnc3)nc2c1 | inactive: 24.5%
Fc1ccc(-c2nnc(Cc3ccc(Cl)cc3)o2)cc1 | inconclusive: 35.7%
CCCCCCc1cc2cc(/C(N)=N/NC(=O)c3ccncc3)c(=O)oc2cc1O | inconclusive: 49.2%
CCOc1ccc(C2=C(C=C(C#N)C#N)C(c3ccccc3)c3ccccc3O2)cc1 (stereo not given) | inconclusive: 32.7%
O=[N+]([O-])c1cc([N+](=O)[O-])c2oc(-c3ccccc3)c(Br)c2c1O | inactive: 1.94%
NC(=O)C1CCN(C2=C(NS(=O)(=O)c3ccc(Cl)cc3)C(=O)c3ccccc3C2=O)CC1 | inconclusive: 32.8%
CC(C)c1ccc(NC(=O)Cn2ncn3c(cc4ccccc43)c2=O)cc1 | inconclusive: 41.7%
CC1=CC(=C(C#N)c2nc3ccccc3s2)C=C(C)N1CC1CCCO1 (stereo not given) | inconclusive: 51.6%

Structure (SMILES) | activation
O=C(N/N=C/c1cc(Cl)ccc1O)C(=O)Nc1ccccc1OC(F)(F)C(F)F | inconclusive: 36.3%
Cc1cc(C(=O)CSc2n[nH]c(N)n2)c(C)n1-c1ccc2c(c1)OCO2 | inconclusive: 34.1%
CCC1(CC)Cc2ccccc2-c2nc(CCl)[nH]c(=O)c21 | inconclusive: 37.8%
O=C(C1CCN(Cc2ccc(Cl)cc2)CC1)N1CCN(C(c2ccccc2)c2ccccc2)CC1 | inconclusive: 35.3%
CCOc1nnc(C)c2c(C)n(-c3cccc(Cl)c3)nc12 | inconclusive: 41.8%
Cc1ccc2cc(CN(C)S(C)(=O)=O)c(=O)[nH]c2c1 | inactive: 0.485%
C/C(CC(=O)NC(C)(C)C)=N\NC(N)=S | inactive: -0.066%
CCCCc1n[nH]c(=S)n1Cc1ccccc1 | inactive: -2.16%
COc1ccccc1N1CCN(c2ccc3cc(S(=O)(=O)N4CCCCC4)ccc3n2)CC1 | inactive: 5.8%
Cc1ccc(OCCCC(=O)N2CCOCC2)cc1 | inconclusive: 57.7%
Cn1ncc(Br)c1NC(=O)Nc1ccc(OC(F)(F)F)cc1 | inconclusive: 78%
COc1cccc(CN2CCN(C3CCN(c4cccc(C)c4C)CC3)CC2CCO)c1 (stereo not given) | inactive: -1.52%
COC(=O)c1ccccc1NC(=O)CSc1nnc(-c2cccnc2)n1C | inactive: 2.87%
O=C(CSc1nc2ccccc2[nH]1)c1ccc2c(c1)OCO2 | inconclusive: 33.4%
Cc1ccccc1N1CCN(CC(=O)NCc2ccc(Cl)cc2)CC1 | inconclusive: 57.4%
COc1ccc(OC)c(/C=C/C(=O)N2CCN(S(=O)(=O)c3ccc(C)cc3C)CC2)c1 | inactive: -4.56%
NC(=O)COC(=O)Cc1coc2cc3c(cc12)CCC3 | inconclusive: 35.9%
Cn1nc(CC(=O)Nc2cccc3ncccc23)c2ccccc2c1=O | inactive: 1.07%
CC(C)Oc1ccc(CCC(=O)N/N=C/c2ccc3c(c2)OCO3)cc1 | inconclusive: 55.5%
CCCCC/C=C/C1=CC(=O)C[C@H](c2ccc3c(c2)OCO3)C1 | inconclusive: 57.9%
CC(=O)OC(C(=O)NC1CCCCC1)c1ccc(Cl)c(Cl)c1 (stereo not given) | inconclusive: 33.2%
CCCC(O)(c1ccccc1)C(CN1CCOCC1)c1ccccc1 (stereo not given) | inactive: -0.34%
O=C(Nc1ccc(Cl)cc1)Nc1csc([N+](=O)[O-])c1 | inconclusive: 31.3%

Some of the entries above, reformatted:
COc1ccc(C)cc1NC(=O)CCN1CCCC1
  activation: inactive: 1.54%
CC(Oc1cccc(Cl)c1)C(=O)NCCCCc1ccccc1 (stereo not given)
  activation: inconclusive: 33.8%
CC(=O)NC12CC3CC(C1)CC(C(=O)NCc1ccc(C)cc1)(C3)C2
  activation: inconclusive: 35.4%
CCOCCCn1c(=S)[nH]c2cc(C(=O)NCc3ccc(F)cc3)ccc2c1=O
  activation: inconclusive: 34%

More entries:

Structure (SMILES) | activation
CCCOc1ccc(/C=C/C(=O)Nc2ccc([N+](=O)[O-])cc2)cc1 | inconclusive: 41.1%
Cc1ccc(NS(=O)(=O)c2ccc(NC(=O)c3cccs3)cc2)c(C)c1 | inactive: 9.23%
CCOC(=O)C1=C(Cc2ccc(Cl)cc2)C(=O)c2ccccc2C1=O | inactive: -2.64%
O=C(NCc1ccncc1)/C(=C\c1ccc(F)cc1)NC(=O)c1ccccc1 | inactive: 3.91%
CCOc1cc(C(=O)Nc2cc(C)ccn2)cc(OCC)c1OCC | inconclusive: 59.7%
Cc1nc2c(c(C)nn2-c2ccccc2)c(C)c1CCC(=O)Nc1ccc(CN2CCCC2)cc1 | inconclusive: 61.1%
CCNC(=O)c1cc(S(=O)(=O)N2CCSCC2)ccc1OC | inactive: 6.19%
COc1ccc(C(=O)Nc2ccccc2N2CCOCC2)cc1S(=O)(=O)N1CCOCC1 | inactive: 0.404%
CC(C)S(=O)(=O)c1csc(NC(=O)Nc2cccc([N+](=O)[O-])c2)c1Cl | inconclusive: 53.3%
Cc1cc(NC(=O)C2CC(c3ccc(F)cc3)=NO2)n(-c2ccccc2)n1 (stereo not given) | inactive: 2.16%
COC(=O)c1ccc(CSc2nc3ccc(S(=O)(=O)N4CCOCC4)cc3[nH]2)cc1 | inconclusive: 57.6%
COc1ccc(C(CC(=O)Nc2ccc(F)cc2)c2ccccc2)cc1 (stereo not given) | inconclusive: 45.7%
CCCCCn1c(CCCNC(=O)CC)nc2ccccc21 | inconclusive: 34.6%
O=C(NC1=NCCS1)c1cc(-c2ccc(F)cc2)nc2ccccc12 | inconclusive: 38.3%
Cc1cc(OC2CCCCC2)nc(-c2ccccc2O)n1 | inconclusive: 35.6%
CCOc1cc(C(=O)NCCc2ccc(S(N)(=O)=O)cc2)cc(OCC)c1OCC | inactive: 25.1%
O=C(NNc1cc(Cl)ccc1Cl)c1c(F)cccc1Cl | inconclusive: 31.3%
O=C(CCCNC(=O)c1ccc(Cl)cc1)OCc1cccc(Br)c1 | inconclusive: 40.5%
C/C(=N/NC(=O)c1cccs1)c1c(C)[nH]n(-c2nc3ccccc3s2)c1=O | inactive: 27.1%
NC(=O)CC(NC(=O)c1ccccc1)c1ccc(NCCOc2ccccc2)c([N+](=O)[O-])c1 (stereo not given) | inactive: -0.804%
CCCc1cc(C(=O)Nc2ccc(C(=O)c3ccc(F)cc3)cc2)n(C)n1 | inconclusive: 51.9%

Rewritten with each value named: part of the list above
CCCOc1ccc(/C=C/C(=O)Nc2ccc([N+](=O)[O-])cc2)cc1
  activation: inconclusive: 41.1%
Cc1ccc(NS(=O)(=O)c2ccc(NC(=O)c3cccs3)cc2)c(C)c1
  activation: inactive: 9.23%
O=C(NNc1cc(Cl)ccc1Cl)c1c(F)cccc1Cl
  activation: inconclusive: 31.3%
